Experimental data from US7582437 (JAPAN SCIENCE AND TECHNOLOGY AGENCY, dated 2009).
These are yes or no findings as the source states them, for the method shown. In cells and extracts the contact can be indirect. Some entries that bind do so weakly or less than the wild type.

Sequences of proteins named here, by UniProt entry; tags and fusion partners are left off. A change or cut given only in a name is not applied to a line headed by its entry. Residues count along the entry.
UniProt O15455, residues 24-904: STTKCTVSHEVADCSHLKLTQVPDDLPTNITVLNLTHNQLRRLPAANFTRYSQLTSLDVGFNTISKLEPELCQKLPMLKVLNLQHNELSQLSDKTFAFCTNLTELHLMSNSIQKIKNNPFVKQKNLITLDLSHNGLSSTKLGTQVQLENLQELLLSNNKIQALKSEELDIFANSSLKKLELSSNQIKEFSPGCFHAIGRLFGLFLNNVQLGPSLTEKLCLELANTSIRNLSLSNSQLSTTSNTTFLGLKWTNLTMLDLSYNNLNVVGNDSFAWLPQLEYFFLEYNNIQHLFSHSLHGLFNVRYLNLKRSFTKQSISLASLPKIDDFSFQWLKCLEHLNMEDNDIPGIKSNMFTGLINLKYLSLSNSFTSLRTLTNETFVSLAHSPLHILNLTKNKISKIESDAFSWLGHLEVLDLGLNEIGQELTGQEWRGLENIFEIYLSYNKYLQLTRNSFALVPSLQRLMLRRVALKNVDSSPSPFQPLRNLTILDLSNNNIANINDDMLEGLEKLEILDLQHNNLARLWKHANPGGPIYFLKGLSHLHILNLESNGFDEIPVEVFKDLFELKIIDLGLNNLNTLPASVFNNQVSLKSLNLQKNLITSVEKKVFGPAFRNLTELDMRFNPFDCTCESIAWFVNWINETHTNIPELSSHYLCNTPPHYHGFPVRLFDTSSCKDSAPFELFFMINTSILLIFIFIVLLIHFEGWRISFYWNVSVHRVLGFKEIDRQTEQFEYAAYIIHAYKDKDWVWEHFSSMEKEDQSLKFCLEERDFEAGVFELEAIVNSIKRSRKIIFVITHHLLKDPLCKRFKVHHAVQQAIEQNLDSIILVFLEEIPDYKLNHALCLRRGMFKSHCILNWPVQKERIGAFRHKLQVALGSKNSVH
UniProt Q8IUC6: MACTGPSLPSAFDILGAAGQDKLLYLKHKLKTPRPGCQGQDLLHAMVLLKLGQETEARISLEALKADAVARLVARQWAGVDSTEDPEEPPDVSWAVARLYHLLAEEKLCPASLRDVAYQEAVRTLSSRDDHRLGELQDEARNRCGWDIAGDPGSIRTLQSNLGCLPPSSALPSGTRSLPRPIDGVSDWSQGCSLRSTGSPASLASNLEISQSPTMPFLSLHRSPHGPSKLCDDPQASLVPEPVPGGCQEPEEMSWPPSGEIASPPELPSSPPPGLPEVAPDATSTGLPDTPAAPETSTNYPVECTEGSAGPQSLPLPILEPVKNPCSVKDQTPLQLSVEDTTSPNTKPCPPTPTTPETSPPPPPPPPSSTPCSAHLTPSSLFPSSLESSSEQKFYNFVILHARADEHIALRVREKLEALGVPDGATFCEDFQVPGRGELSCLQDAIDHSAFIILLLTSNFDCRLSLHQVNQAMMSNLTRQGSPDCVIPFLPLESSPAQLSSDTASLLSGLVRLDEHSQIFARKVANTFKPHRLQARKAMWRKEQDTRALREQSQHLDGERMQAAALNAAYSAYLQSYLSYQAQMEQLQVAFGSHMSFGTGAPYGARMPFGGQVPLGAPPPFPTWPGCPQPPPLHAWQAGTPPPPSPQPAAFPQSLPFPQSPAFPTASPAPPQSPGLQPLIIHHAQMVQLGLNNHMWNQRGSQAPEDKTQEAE

Legend:
[1] = target: flag-tagged human TLR3 (human) (UniProt O15455); test: co-immunoprecipitation in HEK293 cells
[2] = target: flag-tagged human TLR3 (human) (UniProt O15455); test: co-immunoprecipitation from HEK293 lysates
[3] = target: flag-tagged human TLR3 (human) (UniProt O15455); test: co-immunoprecipitation and yeast two-hybrid, conclusion
[4] = target: flag-tagged human TLR3 (human) (UniProt O15455); test: co-immunoprecipitation with monoclonal antibody TLR3.7 against human TLR3
[5] = target: flag-tagged human TLR3 (human) (UniProt O15455); test: co-immunoprecipitation from HEK293 lysates with anti-Flag M2, anti-HA blot
[6] = target: flag-tagged human TLR3 (human) (UniProt O15455); test: co-immunoprecipitation from HEK293 lysates with anti-Flag antibody, anti-HA blot
[7] = target: flag-tagged human TLR3 (human) (UniProt O15455); test: co-immunoprecipitation with anti-Flag M2, anti-HA blot (FIG. 10, middle panel, lane 2)

Measured: binding

HA-tagged human TICAM-1 (from UniProt Q8IUC6 1-712)
binds: all assays above
